Earlier results, collected in US8222425B2, “Organic compounds and their uses” (Novartis AG, priority 2007, dated 2012).

Test system: HCV
Conditions: ribavirin alone, patients; cited from earlier work

NC(=O)c1ncn([C@@H]2O[C@H](CO)[C@@H](O)[C@H]2O)n1 [Ribavirin, 1-β-D-ribofuranosyl-1-1,2,4-triazole-3-caroxamide]
effect on serum levels of HCV-RNA: does not lower serum levels of HCV-RNA
